Source: patent publication US20170165295A1, “COMPOSITION FOR PREVENTING, ALLEVIATING OR TREATING CONSTIPATION, CONTAINING HIGH HARDNESS MINERAL WATER PREPARED FROM DEEP OCEAN WATER OR DESALINATED GROUNDWATER” (ARIBIO INC., priority 2012, published 2017)
Counter-ions that a name gives are not always drawn.

Tested on: loperamide-induced constipated rats
Test: Gastrointestinal charcoal transit ratio in loperamide-induced constipated rats
Assay type: in vivo
Settings: at sacrifice after 6th administration; mean ± S.D. of nine rats
Protocol: 6-week-old rats (SLC, Japan) were used for an experiment after acclimatization to new environments for 7 days. Five rats were raised per cage at 20-25° C. and 45-50% humidity. The light-dark cycle was 12 hr: 12 hr, and water and food were freely available. The rats were classified into six groups (nine rats per group, a total of 54 rats) based on the body weight thereof. Specific groups are as follows:
Administration of Test Material Magnesium hydroxide (Mg(OH)2; MagMill™) was purchased from Samnam Pharm. In order to protect test materials from light and moisture, the test materials were stored in a refrigerator at 4° C. The mineral water was orally administered at 10 ml/kg for each time, at an interval of 6 hours (30 ml/kg/day), three times a day, for a total of six days. The administration for each time was conducted 1 hour after administration of loperamide 3 mg/kg. […]
The gastrointestinal propulsion of the charcoal meal was checked by the method disclosed in Sagar et al. BMC Complement Altern Med, 2005; 5:18, with minor modification. […] Thirty minutes after charcoal meal ingestion, the animals of each group were sacrificed, and the total small intestine length (from pyloric sphincter to appendix) and the charcoal meal transit distance were measured. The gastrointestinal charcoal transit ratio was calculated by equation 3 below: […]

SMILES	Total small intestine length
CN(C)C(=O)C(CCN1CCC(O)(c2ccc(Cl)cc2)CC1)(c1ccccc1)c1ccccc1 [Loperamide, loperamide hydrochloride]	121.40 ± 2.90 cm
[Mg+2].[OH-].[OH-] [Mg(OH)2, Magnesium hydroxide]	124.81 ± 6.10 cm
